Test results reported in paper PMC8705706, “Benzimidazole Derivatives as New and Selective Inhibitors of Arginase from Leishmania mexicana with Biological Activity against Promastigotes and Amastigotes” (International Journal of Molecular Sciences, 2021).

How the values were obtained:
[1] = tested on: Promastigotes of L. mexicana (MNYC/BZ/62/M379); assay: Biological activity against promastigotes, resazurin; type: cell-based, Leishmania mexicana; details: SI = CC50/IC50, J774.2 versus promastigotes
Description: Promastigotes of L. mexicana (MNYC/BZ/62/M379 reference strain) were grown in Schneider’s medium supplemented with fetal bovine serum 10% (v/v), ampicillin (100 U/mL)/streptomycin (100 µg/mL). Parasites were collected at log phase to assess the compounds and 5 × 10^5 promastigotes were seeded in a 96-wells plate. Compounds were previously dissolved in dimethyl sulfoxide (DMSO) up to a concentration of 1 mg/mL. Thereafter, serial dilutions were made with culture medium from 100 µg/mL to 0.8 µg/mL and then they were added to the wells by triplicates. Parasites non treated and treated with Glucantime, Amphotericin B and Miltefosine were included as […]. Parasites were incubated at 26 °C during 48 h and resazurin 2.5 mM was added at the end into each well. Afterwards, fluorescence intensity was measured with excitation/emission 535/590 nm in a spectrofluorometer (Infinite 200, Tecan Group Ltd., Mannedorf, Switzerland). Finally, half maximal inhibitory concentration (IC50) was determined through a Probit analysis. The assays were made by triplicate in 3 independent experiments.

[2] = tested on: amastigote of L. mexicana; assay: Biological activity against intracellular amastigotes in J774.2 macrophages, resazurin; type: cell-based, Leishmania mexicana; details: SI = CC50/IC50, J774.2 versus amastigotes
Description: Biological activity of the benzimidazole derivatives was also evaluated against the amastigote of L. mexicana. For this, 5 × 10^4 murine macrophages J774.2 (ATCC® TIB-67) per well were grown in a plate of 96 wells with RPMI medium at […], 5% CO2 during 24 h. The cells were infected with promastigotes in log phase in a 10:1 proportion (parasite: macrophage) and they were incubated at 37 °C, 5% CO2 during 24–48 h. A wash with RPMI medium to remove the not-infected promastigotes was made. Compounds were added in a serial dilution from 100 µg to 0.8 µg/mL in triplicate and were incubated at 37 °C, 5% CO2 for 48 h. Glucantime, Amphotericin B and Miltefosine were used as reference drugs. Then, the cells were lysed with a non-complemented Schneider’s medium lysis solution with SDS 0.01%, after incubating for 20 min the lysis solution was removed. Afterwards, Schneider medium was added incubating at 26 °C during four days at room temperature to differentiate intracellular amastigotes from free amastigotes. Thereafter, 20 µL of resazurin 2.5 mM was added to each well and incubated during 3 h. Fluorescence intensity and IC50 were measured as described for promastigotes. The assays were made by triplicate in 3 independent experiments.

| Structure (SMILES) | SI Promastigotes [1] | SI Amastigotes [2] |
| --- | --- | --- |
| COC(=O)Nc1nc2cc(Cl)ccc2n1C [Compound 1, Methyl (5-chloro-1-methyl-1H-benzimidazol-2-yl)carbamate] | 6.5 | 13 |
| CSc1nc2cc(C(N)=O)c(Cl)cc2[nH]1 [Compound 2, 6-Chloro-2-(methylthio)-1H-benzimidazole-5-carboxamide] | 3.1 | 4.1 |
